# Measurements reported in PubChem BioAssay AID485314 (National Center for Advancing Translational Sciences (NCATS), 2010).
# About 4,500 (1.3%) of roughly 340,000 compounds were called active. Inconclusive results, whose numbers are uncertain, are shown with a selection of clear calls. Calls come from the whole dose curve; as a rule, active = well fitted inhibition curve with a large enough effect; inconclusive = small, poorly fitted or top-dose-only effect, or another doubt; inactive = no such curve, though single readings can be large or run the other way. Potencies of inconclusive entries are doubtful fits and often do not repeat.
# Target: DNA polymerase beta (Homo sapiens) (UniProt P06746)
# Assay: qHTS Assay for Inhibitors of DNA Polymerase Beta
# Conditions: Pol beta primer extension/strand displacement, fluorescence kinetic; activity change, negative = inhibition: at 114 µM (top of the series)
# Procedure, shortened: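 Human Pol beta at 10 nM; strand-displacement substrate 50 nM final. Compound exposure 15 min at room temperature before start, reaction 10 min at room temperature.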
# % is set by controls: 0 for no effect and ±100 for the full control effect; potency is the fitted concentration of half-maximal effect.
SMILES,Potency,"activity change, negative = inhibition"
COc1ccc(/C=C2\SC(=S)N(CCC(=O)Nc3ccc(O)cc3)C2=O)cc1,inactive,
COc1cccc(NS(=O)(=O)c2ccc3[nH]cc(C(=O)NCCc4ccccc4)c(=O)c3c2)c1,"inconclusive: 17.8 µM [inhibitor, partial curve]",
O=C(c1ccc(-c2ccccc2)cc1)c1ccc([N+](=O)[O-])cc1,"inconclusive: 12.6 µM [inhibitor, partial curve]",
Cc1cc(C)c2nc3c(c(C(=O)O)c2c1)CCC3,active: 17.8 µM,
Nc1nonc1N/N=C/c1c(O)ccc2ccccc12,"inconclusive: 25.1 µM [inhibitor, full curve]",
CCC(=O)N1CCc2cc(Br)cc(S(=O)(=O)CCC(=O)Nc3ccc(C)c(C)c3)c21,"inconclusive: 100 µM [inhibitor, single point]",
Cc1nnc(N/N=C\c2ccc(-c3ccccc3[N+](=O)[O-])o2)n1N,inactive,
CCOC(=O)CNC(=O)CSc1ncnc2c1cnn2-c1ccccc1,"inconclusive: 79.4 µM [inhibitor, single point]",
CCN(CC)C(=O)CSC1=Nc2ccccc2C2=NC(c3ccccc3)C(=O)N12 (centres undefined),"inconclusive: 0.126 µM [inhibitor, full curve, poor fit]",
CC(CN1CCN(C)CC1)OC(=O)c1ccccc1 (centres undefined),"inconclusive: 10 µM [inhibitor, partial curve]",
O=C(NCc1cccs1)C(NS(=O)(=O)c1cccc2nsnc12)c1ccccc1 (centres undefined),"inconclusive: 25.1 µM [inhibitor, partial curve, poor fit]",
Cc1ccc(-c2nnc(N3CCOCC3)c3ccccc23)cc1S(=O)(=O)NCc1cccnc1,"inconclusive: 0.141 µM [inhibitor, full curve, poor fit]",
CN1CCCN(C(=O)c2ccc(Br)cc2)CC1,"inconclusive: 3.55 µM [inhibitor, single point]",
COc1cccc(N2C(=O)CSC23C(=O)N(Cc2ccccc2)c2ccccc23)c1 (centres undefined),inactive,
Cn1ccnc1SCC(=O)Nc1ccc(Cl)cn1,"inconclusive: 35.5 µM [inhibitor, single point]",
Cc1ccccc1NC(=O)c1csc2c1CCCC2,"inconclusive: 3.98 µM [inhibitor, single point]",
COCCNC(=O)c1ccc(-n2c(-c3ccccc3)cc3c2CCCCC3)cc1,inactive,
Cc1ccc(/C=N/NC(=O)c2nnn(-c3nonc3N)c2CSc2ccccc2)o1,inactive,
Cc1nc(SCC(=O)N2CCc3ccccc3C2)c2c(C)c(C)sc2n1,"inconclusive: 79.4 µM [inhibitor, single point]",
Cc1ccc(C)c(NC(=O)Cn2cc(C(=O)c3ccco3)c3ccccc32)c1,"inconclusive: 22.4 µM [inhibitor, full curve]",
O=C(CN1CCN(Cc2ccccc2Cl)C1=O)NCc1cccnc1,"inconclusive: 10 µM [inhibitor, partial curve]",
COc1cccc(Cn2c(CNC(=O)Cc3cccc(C)c3)nc3cccnc32)c1,inactive,
COc1ccccc1-c1nc2c(c(SCC(=O)Nc3ccc(C)c(C)c3)n1)Cc1c(CO)cnc(C)c1O2,inactive,

SMILES,Potency,"activity change, negative = inhibition"
N=c1c2c(-c3ccccc3)c(-c3ccccc3)n(Cc3ccco3)c2ncn1CCCn1ccnc1,"inconclusive: 1.26 µM [inhibitor, full curve, poor fit]",
COc1ccc(N(CC(=O)Nc2cccc(Cl)c2C)S(=O)(=O)c2c(C)nn(C)c2C)cc1,"inconclusive: 89.1 µM [inhibitor, single point]",
CCOc1ccc(N(C(C)C(=O)N/N=C(\C)c2cccc(NC(=O)c3ccccc3)c2)S(C)(=O)=O)cc1 (centres undefined),"inconclusive: 2.24 µM [inhibitor, full curve]",
CCOc1ccc(OCCN2C(=O)c3ccccc3C2=O)cc1,inactive,
CCCCCOc1c(Cl)cc(C(=O)N(Cc2ccc(C)o2)C2CCS(=O)(=O)C2)cc1Cl (centres undefined),"inconclusive: 89.1 µM [inhibitor, single point]",
COc1ccc(C)c2sc(N(Cc3cccnc3)C(=O)C3CCCCC3)nc12,inactive,
CCC(C)N1CC(=O)N2C(c3ccc(OC)cc3OC)c3[nH]c4ccccc4c3C[C@H]2C1=O (some centres undefined),inactive,
Cc1ccc(CN2C(=O)N/C(=C\c3cccn3-c3cccc(C(=O)O)c3)C2=O)cc1,active: 8.91 µM,
CCCN(CCC)CCNC(=O)C1c2ccccc2C(=O)N2CCc3ccccc3C12 (centres undefined),inactive,
CCOC(=O)c1ccc(N2C(=O)c3n[nH]c(-c4ccco4)c3C2c2ccc(O)cc2)cc1 (centres undefined),inactive,
COc1ccc(/C=N/NC(=O)CSc2nnc(CCCc3ccc(OC)c(C)c3)o2)cc1,"inconclusive: 22.4 µM [inhibitor, partial curve, poor fit]",
Cc1csc(/C(=N\O)c2csc(C)n2)n1,inactive,
CCOc1ccc(OCCCCNC(C)(C)C)cc1,"inconclusive: 3.55 µM [inhibitor, single point]",
Cc1ccccc1CN1CCNC(=O)C1CC(=O)NCCC1=CCCCC1 (centres undefined),"inconclusive: 31.6 µM [inhibitor, single point]",
COC(=O)CNC(=O)c1ccc(NS(=O)(=O)c2cc([N+](=O)[O-])ccc2Cl)cc1,"inconclusive: 15.8 µM [inhibitor, full curve]",
COc1cc(-c2[nH]ncc2CN2CCCC2c2nonc2C)cc(OC)c1OC (centres undefined),inactive,
COc1ccc(OC)c(/C=C2\Oc3cc(OCC(=O)N4CC(O)C[C@H]4C(=O)O)ccc3C2=O)c1 (some centres undefined),"inconclusive: 89.1 µM [inhibitor, single point]",
CCCCCC(=O)Nc1ccc(-c2csc(N)n2)cc1,"inconclusive: 39.8 µM [inhibitor, single point]",
O=C1NC(=S)N/C1=C/c1ccc(-c2c(Br)cc([N+](=O)[O-])cc2Br)o1,active: 8.91 µM,
CCOc1cccc(C(c2c(C)n(C)n(-c3ccccc3)c2=O)c2c(C)n(C)n(-c3ccccc3)c2=O)c1OC,inactive,
COc1cc(C(=O)NS(=O)(=O)c2ccccc2C)ccc1Cc1cn(C)c2ccc(NC(=O)OC3CCCC3)cc12,active: 56.2 µM,
O=C(CSc1nnc(-c2cccnc2)n1Cc1ccco1)c1ccc2ccccc2c1,"inconclusive: 89.1 µM [inhibitor, single point]",
COc1ccc(-c2nc(CSc3nncn4c3cc3occc34)c(C)o2)cc1,active: 3.55 µM,

# Quoted at random: 3 entries already listed
SMILES,Potency,"activity change, negative = inhibition"
Cc1ccc(C)c(NC(=O)Cn2cc(C(=O)c3ccco3)c3ccccc32)c1,"inconclusive: 22.4 µM [inhibitor, full curve]",
O=C(CSc1nnc(-c2cccnc2)n1Cc1ccco1)c1ccc2ccccc2c1,"inconclusive: 89.1 µM [inhibitor, single point]",
COc1ccc(/C=N/NC(=O)CSc2nnc(CCCc3ccc(OC)c(C)c3)o2)cc1,"inconclusive: 22.4 µM [inhibitor, partial curve, poor fit]",

# Following part.

SMILES,Potency,"activity change, negative = inhibition"
Cc1ccc(-c2nc(N/N=C/c3ccccc3[N+](=O)[O-])c3ccccc3n2)cc1,"inconclusive: 11.2 µM [inhibitor, full curve, poor fit]",
Cc1ccc2nc(-c3cc(NC(=O)/C=C/c4ccccc4)ccc3Cl)oc2c1,,inconclusive: -38.8% [inhibitor]
COc1ccc(/C=C2\C(=O)NC(=S)N2C(=O)c2ccc(F)cc2)cc1,active: 14.1 µM,
Cc1ccc(NC(=O)Cn2c(=O)n(Cc3ccco3)c(=O)c3sc4ccccc4c32)cc1C,"inconclusive: 20 µM [inhibitor, full curve]",
COc1cccc(CC2(CO)CCN(Cc3cnc(N4CCOCC4)s3)CC2)c1,"inconclusive: 1.41 µM [inhibitor, full curve]",
CCN1/C(=C/c2cccc[n+]2C)Sc2ccc(OC)cc21,"inconclusive: 44.7 µM [inhibitor, partial curve]",
N=c1c(C(=O)NCc2ccco2)cc2c(=O)n3ccccc3nc2n1Cc1ccc(Cl)cc1,"inconclusive: 6.31 µM [inhibitor, full curve]",
O=C(CSc1nc2nc(-c3cccs3)cc(C(F)(F)F)c2c(=O)[nH]1)NCc1ccco1,active: 56.2 µM,
CCCCN(CC)C(=O)Cc1c(C(=O)O)[nH]c2ccc(Cl)cc12,inactive,
C/C(=N/NC(=O)CNC(=O)COc1ccccc1)c1ccc(Cl)cc1,,inconclusive: -41.7% [inhibitor]
CCn1c(=O)c(C(=O)Nc2ccc(C(C)=O)cc2)nc2ccccc21,inactive,
O=C(CNS(=O)(=O)c1ccccc1)Nc1ccc(C(F)(F)F)cc1,"inconclusive: 89.1 µM [inhibitor, single point]",
COc1cc(NS(=O)(=O)c2ccc(NC(=O)/C(=C/c3ccccc3Cl)NC(=O)c3ccccc3)cc2)nc(OC)n1,inactive,
O=C1N=C(N2CCCC2C(=O)O)S/C1=C\c1ccco1 (centres undefined),"inconclusive: 22.4 µM [inhibitor, full curve]",
O=c1[nH][nH]c2cc(=O)n(-c3ccc(Cl)cc3)nc12,"inconclusive: 25.1 µM [inhibitor, full curve]",
Oc1c(C(c2ccc(Cl)cc2)N2CCC3(CC2)OCCO3)sc2nc(-c3ccco3)nn12 (centres undefined),"inconclusive: 0.794 µM [inhibitor, full curve, poor fit]",
COc1ccc(/C=N/NC(=O)c2ccncc2)cc1CN1CCN(c2ccc(F)cc2)CC1,"inconclusive: 89.1 µM [inhibitor, single point]",
CCN(CC)CCCn1c(C)cc2c(c1=O)C(c1cccc(Cl)c1)C(C#N)=C(N)O2 (centres undefined),"inconclusive: 89.1 µM [inhibitor, single point]",
CCn1c2ccccc2c2cc(CC(N)=O)ccc21,"inconclusive: 89.1 µM [inhibitor, single point]",
COCCCNc1oc(-c2cccs2)nc1S(=O)(=O)c1ccc(C)cc1,active: 39.8 µM,
COc1cc(/C=N/NC(=O)CCC(=O)Nc2ccc(F)cc2)ccc1O,"inconclusive: 100 µM [inhibitor, single point]",
Cc1cc(/C=C2/SC(=O)NC2=O)c(C)n1-c1ccc(N2CCOCC2)cc1,inactive,
CCOc1ccc(OCCSc2nc3ccccc3n2CC(=O)O)cc1,"inconclusive: 0.708 µM [inhibitor, full curve, poor fit]",
